Among all 410,000 compounds or so, about 18,000 (4.4%) were called active. Inconclusive means that the source gave no clear call. Such entries were picked first, then a sample of the others. Cut-off read from the data, not from the text of the source: active = activity change below about -60%; inconclusive = no clear call, values can overlap the other calls; inactive = above about -39%.
experiment: qHTS Assay for inhibitors of the human cytomegalovirus (HCMV); details: HFF cells, HCMV-luciferase reporter, 72 h; at 57.5 µM; hits give low values
How it was run: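 Cell-based, HFFs, 1000 cells/well, 16 h 37C; cpds in DMSO + HCMV-luc, MOI 1 PFU/cell; 72 h 37C; OneGlo luminescence after 5 min RT; norm. to buffer vs Salinomycin 10uM.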
% is set by controls: 0 for no effect and ±100 for the full control effect.

Row | SMILES | activity change, negative = inhibition
1 | O=C(Nc1ccccc1)N1N=CCC1c1ccccc1 (stereo not drawn) | inconclusive: -40.7%
2 | Cc1ccc(-c2nn3c(C)nnc3s2)cc1NC(=O)c1ccc(-c2cccc(Cl)c2)o1 | inconclusive: -57.7%
3 | COc1cccc(/C(O)=C/c2nc3ccc(C(=O)NCCc4ccc(Cl)cc4)cc3[nH]c2=O)c1 | inconclusive: -41.7%
4 | COc1cc(NC(=S)N2CCCC(CO)C2)c(OC)cc1Cl (stereo not drawn) | inconclusive: -42.7%
5 | COc1ccc2ccccc2c1/C=N\NC(=O)c1ccc(C)s1 | inconclusive: -43.8%
6 | CCCCCC(=O)NCc1c(C(F)(F)F)nn(C)c1N1CCOCC1 | inconclusive: -58.6%
7 | O=C(Nc1nnc(SCC(=O)N2CCCC2)s1)C1CC(=O)N(c2ccc(F)cc2)C1 (stereo not drawn) | inactive: 18.4%
8 | CCCC(C)C(=O)Nc1ccc(S(N)(=O)=O)cc1 (stereo not drawn) | inconclusive: -49.6%
9 | Cc1ccc(S(=O)(=O)N/N=C/c2ccc3nccnc3c2)cc1 | inconclusive: -45.2%
10 | CC(=O)n1cc(N(C(=O)CCl)c2ccccc2)c2ccccc21 | active: -97.6%
11 | C=CCn1c(SCC(=O)Nc2cccc(S(N)(=O)=O)c2)nnc1C1CCCCC1 | inactive: -18.7%
12 | COc1ccc(C2=NNC(c3cccnc3)=Nc3ccccc32)cc1 | inactive: -33.3%
13 | COC(=O)C1=C(C)Nc2nnnn2C1c1ccccc1Cl (stereo not drawn) | inconclusive: -59.7%
14 | O=C(NC1CCCCC1)c1cc(-c2ccccn2)nc2ccccc12 | inconclusive: -50.5%
15 | COc1ccc(Nc2nccc(-c3cccc(N)c3)n2)cc1 | inconclusive: -47.5%
16 | CCOC(=O)Cc1csc(NC(=O)/C=C/c2ccc(Cl)cc2)n1 | inconclusive: -59.9%
17 | Cc1cccc(-c2nc3ccccc3c3nncn23)c1 | inconclusive: -57.5%
18 | COCCCN(C(=S)Nc1cccc(Cl)c1)C(C)c1ccncc1 (stereo not drawn) | inconclusive: -53.9%
19 | O=C(CN1CCN(Cc2ccccc2)CC1)Nc1ccc(S(=O)(=O)N2CCOCC2)cc1 | inconclusive: -55.5%
20 | O=S(=O)(c1ccc2c(c1)OCCO2)N1CCNCC1 | inconclusive: -54.8%

Row | SMILES | activity change, negative = inhibition
21 | COc1c(C(CC(C)C)OC(C)=O)ccc2c1C(=O)OCc1cc(C)cc(O)c1O2 (stereo not drawn) | inactive: -18.5%
22 | Cc1ccc(N(Cc2cc(=O)[nH]c3ccccc23)C(=O)CCl)cc1 | active: -101%
23 | CCn1c(SC(C)C(=O)NCC2CCCO2)nc2scc(-c3ccccc3)c2c1=O (stereo not drawn) | inconclusive: -52.3%
24 | Brc1ccc(NCc2cccc3ccccc23)nc1 | inactive: -21.5%
25 | Cc1nn(-c2ccccc2)cc1C(=S)Nc1ccccc1 | inactive: -22.8%
26 | C[C@@H]1CN([C@@H](C)CO)C(=O)CCCn2nncc2CO[C@H]1CN(C)C(=O)Nc1cccc2ccccc12 | inactive: -2.77%
27 | CCC(=O)NNc1nc2c(C)cc(C)cc2s1 | inactive: 65.3%
28 | Cc1ccc(-n2nc3c(=O)n(CC(=O)NCC(C)c4ccccc4)nc(C)c3c2C)cc1 (stereo not drawn) | inconclusive: -43%
29 | CCOc1ccc(N2CC(C(=O)NC3=NCCS3)CC2=O)cc1 (stereo not drawn) | inconclusive: -44.2%
30 | COc1ccc(CCC(=O)Nc2cnc3ccccc3c2)cc1 | inactive: 24%
31 | O=C(/C=C\c1cccs1)c1c(O)ccc2ccc(=O)oc12 | active: -61.6%
32 | COc1ccc(C(CC(=O)NCc2ccccc2Cl)N2Cc3ccccc3C2=O)cc1OC (stereo not drawn) | inactive: -10.2%
33 | CCOC(=O)[C@]12Cc3ccccc3[C@H]1N(C)C(=O)c1cc(OC)ccc12 | active: -96.5%
34 | Cc1cccc(CN(Nc2ccccc2)c2ccccc2)n1 | inconclusive: -58.1%
35 | Cc1cc2ncn(S(=O)(=O)c3ccc(S(N)(=O)=O)cc3)c2cc1C | inactive: 56.3%
36 | COc1ccccc1CCNC(=O)CCCn1nc(C)c2c(C)n(-c3ccc(C)cc3)nc2c1=O | inconclusive: -50.9%
37 | CCOC(=O)C1(C)C(=O)CC2c3nc4ccccc4cc3CN2C1=O (stereo not drawn) | inconclusive: -59.7%
38 | CC(=O)c1cccc(S(=O)(=O)NCCC(=O)O)c1 | inconclusive: -48.4%
39 | COc1ccc(OCCCC(=O)N2CCN(S(=O)(=O)c3cccc(F)c3)CC2)cc1 | inactive: -34.4%
40 | O=C(NC1CC1)c1cccc(S(=O)(=O)N2CCOCC2)c1 | inactive: 0%

Among those listed so far, these contain an NH in an aromatic ring:
Row | SMILES | activity change, negative = inhibition
3 | COc1cccc(/C(O)=C/c2nc3ccc(C(=O)NCCc4ccc(Cl)cc4)cc3[nH]c2=O)c1 | inconclusive: -41.7%
22 | Cc1ccc(N(Cc2cc(=O)[nH]c3ccccc23)C(=O)CCl)cc1 | active: -101%

Reformatted with tabs: entries from further up
Row	SMILES	activity change, negative = inhibition
21	COc1c(C(CC(C)C)OC(C)=O)ccc2c1C(=O)OCc1cc(C)cc(O)c1O2 (stereo not drawn)	inactive: -18.5%
25	Cc1nn(-c2ccccc2)cc1C(=S)Nc1ccccc1	inactive: -22.8%

Continued.

Row | SMILES | activity change, negative = inhibition
41 | CC1CCN(C(=O)COC(=O)C2CCN(S(=O)(=O)c3ccc(Cl)c(C(F)(F)F)c3)CC2)CC1 | inconclusive: -44.6%
42 | N#C/C(=C(/O)CCl)c1nc2ccccc2[nH]1 | active: -70%
43 | CC(C)(C)C(=O)Nc1sc2c(c1C#N)CCC2 | inconclusive: -50.6%
44 | COc1ccc(CC(=O)NCc2n[nH]c(=S)n2-c2cccc(Cl)c2)cc1 | inconclusive: -44.4%
45 | COc1ccc(CCNC(=O)CNS(=O)(=O)c2ccc(Br)cc2)cc1 | inconclusive: -52.1%
46 | CCc1c(C)c(C#N)c2nc3ccccc3n2c1NCCOC | inconclusive: -55.3%
47 | COc1ccc2c(c1)-c1c(ssc1=S)C(C)(C)N2C(=O)CSC1=NCCS1 | active: -80.5%
48 | COc1cc(/C=N/O)ccc1OCc1ccc(Cl)cc1 | inactive: 137%
49 | COc1ccc(OC)c(S(=O)(=O)N2CCC(C(=O)Nc3cccc(C)c3)CC2)c1 | active: -61.1%
50 | Cc1cccc(N2CCN(C(=O)CC(NC(=O)c3ccccc3)c3ccccc3)CC2C)c1 (stereo not drawn) | active: -66.3%
51 | CCNC(=S)/N=C(/Nc1ccc(OC)cc1)Nc1nc(C)cc(C)n1 | inactive: -28.5%
52 | C/C(=C\c1ccc2c(c1)OCO2)C1Nc2cccc3cccc(c23)N1 | inconclusive: -49.1%
53 | CN1Cc2cccc3c2C(Cc2ccccc2S3)C1 (stereo not drawn) | inconclusive: -53.1%
54 | O=C1C2C3C=CC(C4CC34)C2C(=O)N1/N=C/c1cccs1 (stereo not drawn) | inconclusive: -43.8%
55 | COc1ccc(CNC(=S)NCc2ccc(OC)cc2)cc1 | inconclusive: -47.1%
56 | COc1ccc(-c2nc(CS(=O)CC(=O)NC3CCC(C)CC3)c(C)o2)cc1OC (stereo not drawn) | inactive: 14.3%
57 | CCOc1ccc2nc(NC(=O)CCC(=O)c3cccs3)sc2c1 | inactive: 7.96%
58 | CCCCNC(=O)CN(c1cc(C(F)(F)F)ccc1Cl)S(C)(=O)=O | inconclusive: -52.4%
